Test results from PMC10743020.
These are yes or no findings as the source states them, for the method shown. In cells and extracts the contact can be indirect. Some entries that bind do so weakly or less than the wild type.

By UniProt entry, the sequences of proteins in these tests, tags left out. Residues count along the entry.
UniProt Q91W90, residues 34-417: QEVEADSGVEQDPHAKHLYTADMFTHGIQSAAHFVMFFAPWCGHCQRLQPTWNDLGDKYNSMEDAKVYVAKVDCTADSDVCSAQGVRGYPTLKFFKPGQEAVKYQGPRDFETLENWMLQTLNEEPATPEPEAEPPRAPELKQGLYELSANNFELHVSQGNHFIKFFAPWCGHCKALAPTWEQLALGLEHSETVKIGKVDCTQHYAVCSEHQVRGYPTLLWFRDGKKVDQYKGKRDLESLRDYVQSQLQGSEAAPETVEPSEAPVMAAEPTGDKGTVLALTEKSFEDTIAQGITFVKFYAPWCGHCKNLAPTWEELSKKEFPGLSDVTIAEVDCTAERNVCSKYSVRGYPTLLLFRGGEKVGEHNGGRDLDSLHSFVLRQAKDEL
UniProt P38647, residues 47-679: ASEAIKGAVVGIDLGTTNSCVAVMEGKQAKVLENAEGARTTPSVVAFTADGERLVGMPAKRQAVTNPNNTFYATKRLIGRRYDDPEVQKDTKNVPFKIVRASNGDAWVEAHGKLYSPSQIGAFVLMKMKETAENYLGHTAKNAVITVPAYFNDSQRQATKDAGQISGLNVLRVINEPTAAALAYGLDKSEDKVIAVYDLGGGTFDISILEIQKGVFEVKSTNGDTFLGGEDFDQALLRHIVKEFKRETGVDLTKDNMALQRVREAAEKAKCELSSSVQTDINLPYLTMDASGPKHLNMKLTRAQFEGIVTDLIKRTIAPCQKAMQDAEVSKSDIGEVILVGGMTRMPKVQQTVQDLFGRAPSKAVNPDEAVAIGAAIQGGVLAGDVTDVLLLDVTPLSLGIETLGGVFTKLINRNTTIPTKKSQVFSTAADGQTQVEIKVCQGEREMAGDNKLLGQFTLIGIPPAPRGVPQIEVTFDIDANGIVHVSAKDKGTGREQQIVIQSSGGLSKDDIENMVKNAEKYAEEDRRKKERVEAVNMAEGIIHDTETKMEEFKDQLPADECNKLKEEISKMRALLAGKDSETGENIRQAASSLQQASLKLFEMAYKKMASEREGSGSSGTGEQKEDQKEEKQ

Assays:
[1] = biological target: Thioredoxin domain-containing 5 (TXNDC5) (mouse (endogenous in AML12)) (UniProt Q91W90); test: co-IP; AML12 WT and TXNDC5-KO lysates (RIPA) immunoprecipitated with anti-TXNDC5 or anti-PRDX6 antibody on protein A magnetic beads, overnight at 4 °C, PBS-T washes; Western blot of the eluates
[2] = biological target: T1, PRDX6 (mouse (endogenous in AML12)) (UniProt O08709); test: as above
T1 sequence: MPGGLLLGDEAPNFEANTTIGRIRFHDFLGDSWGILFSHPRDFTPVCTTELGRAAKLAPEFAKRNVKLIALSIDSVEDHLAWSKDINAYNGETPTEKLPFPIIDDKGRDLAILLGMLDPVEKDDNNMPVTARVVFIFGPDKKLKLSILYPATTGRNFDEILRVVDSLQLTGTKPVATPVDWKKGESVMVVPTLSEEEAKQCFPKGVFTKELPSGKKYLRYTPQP

Row | Substance | binding [1] | binding [2]
1 | HSPA9 (from UniProt P38647 47-679) | binds | 
2 | Thioredoxin domain-containing 5 (TXNDC5) (from UniProt Q91W90 34-417) |  | binds
